Assay results published in patent US20250189532A1, “1,6-DIYNE COMPOUND, ITS PREPARATION METHOD, AND PRODUCTS OBTAINED USING 1,6-DIYNE COMPOUND AS RAW MATERIAL AND THEIR APPLICATIONS” (Fujian Institute of Research on the Structure of Matter, …, priority 2022, published 2025).

Test: Detection of active oxygen on polytetrafluoroethylene carrier
Procedure: The compound PA-1 is dissolved in dichloromethane and applied to five pieces of polytetrafluoroethylene carriers respectively, then sodium hypochlorite aqueous solutions with different concentrations (8% mass concentration of sodium hypochlorite aqueous solution, 50 times diluted solution, 500 times diluted solution, 500 times diluted solution, and NaClO-free aqueous solution) are dripped on the carriers. Then, heat at 100° C. for 30 seconds.

C#CCN(C(C#Cc1ccccc1)c1ccccc1)S(=O)(=O)c1ccccc1 (centres unmarked) [PA-1]
colour change of the carrier (sodium hypochlorite aqueous solutions dripped on, heated at 100° C. for 30 seconds): from colorless to red | fluorescence change (under 365 nm ultraviolet light, sodium hypochlorite, 100° C. for 30 seconds): from no fluorescence to strong fluorescence
